Experiment: general procedure: Boc solid-phase peptide synthesis; p-MBHA resin; dicyclohexylcarbodiimide
Conditions: whole synthesis, scale 0.5 mmol

Work on Ac-Nle-Asp-His-D-Phe-Cl-Arg-Trp-Lys-NH2 yielded a crude mass of 370 mg.

— patent publication US20030036514A1 (priority 2001, published 2003)
